# Values from PubChem BioAssay AID1259308 (NCATS, 2017)
# Test: 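Candidate targets for better recombinant protein yield in mammalian cells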 (primary screen)
# Cell system: human HEK293 embryonic kidney cells stably expressing firefly luciferase (HEK-CMV-Luc2-Hygro)
# Reagents: single siRNA against human genes, 0.8 pmol siRNA per well
# Duration: 72 h
# Measurement: 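Reporter luminescence and viable-cell signal on separate replicate plates, given as percent of non-targeting control and median/MAD z-scores, plus per-cell luciferase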
# Reading the numbers: total luciferase, z-score and total luciferase, % of control: higher = more reporter protein produced; luciferase per cell, z-score: higher = more reporter output per viable cell; viable cells, % of control: higher = more viable cells
# Hit rule: 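An siRNA counts as active if its total luciferase robust z-score exceeds 3; genes with two or more such siRNAs out of three were retested with fresh siRNAs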
# Meaning of the calls: active = raised luciferase; inactive = no rise
# Shown is an unselected part of about 59,000 deposited reagents. Over the whole deposit, about 1,510 (2.6%) got an active call. 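Calls use total luciferase alone and ignore viability, so some active siRNAs may act by altering cell number.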 The numbers tell different reagents against one gene apart. No sequences are given here.
target,reagent,"total luciferase, z-score","total luciferase, % of control","luciferase per cell, z-score","viable cells, % of control",Outcome
IFIT2 (interferon induced protein with tetratricopeptide repeats 2),1,-0.266,76.6,0.052,84.4,inactive
IFIT2 (interferon induced protein with tetratricopeptide repeats 2),2,-0.729,67.4,0.513,65.8,inactive
IFIT2 (interferon induced protein with tetratricopeptide repeats 2),3,-0.575,70.4,-1.18,107,inactive
ITGA7 (integrin subunit alpha 7),1,-0.167,78.6,-0.507,100,inactive
ITGA7 (integrin subunit alpha 7),2,1.82,118,0.361,120,inactive
ITGA7 (integrin subunit alpha 7),3,-1.41,53.8,-0.898,76.2,inactive
FKBP15 (FKBP prolyl isomerase family member 15),1,1.62,114,1.39,88.3,inactive
FKBP15 (FKBP prolyl isomerase family member 15),2,-1.09,60.3,-1.22,92.8,inactive
FKBP15 (FKBP prolyl isomerase family member 15),3,0.451,90.9,0.427,90.7,inactive
EMX2 (empty spiracles homeobox 2),1,2.95,140,2.74,76.2,inactive
EMX2 (empty spiracles homeobox 2),2,0.783,97.5,1.09,81.8,inactive
EMX2 (empty spiracles homeobox 2),3,-1.18,58.4,-1.61,99.8,inactive
"CER1 (cerberus 1, DAN family BMP antagonist)",1,-0.341,75.1,-0.807,104,inactive
"CER1 (cerberus 1, DAN family BMP antagonist)",2,0.07,83.3,0.384,84.1,inactive
"CER1 (cerberus 1, DAN family BMP antagonist)",3,0.775,97.3,0.205,103,inactive
CALML6 (calmodulin like 6),1,-0.226,77.4,0.527,75.3,inactive
CALML6 (calmodulin like 6),2,0.385,89.5,0.548,86.6,inactive
CALML6 (calmodulin like 6),3,-1.68,48.5,-0.973,70.1,inactive
FUT7 (fucosyltransferase 7),1,-0.067,80.6,0.08,88.1,inactive
FUT7 (fucosyltransferase 7),2,0.0359,82.6,0.0689,90.6,inactive
FUT7 (fucosyltransferase 7),3,-1.59,50.3,-2.13,98.6,inactive
IPO4 (importin 4),1,1.37,109,1.14,90.3,inactive
IPO4 (importin 4),2,0.36,89.1,-0.612,117,inactive
IPO4 (importin 4),3,1.3,108,2.21,67.3,inactive
OTUD1 (OTU deubiquitinase 1),1,-0.0904,80.1,-0.157,93.3,inactive
OTUD1 (OTU deubiquitinase 1),2,-1.32,55.7,0.46,55.2,inactive
OTUD1 (OTU deubiquitinase 1),3,-0.703,67.9,-0.153,79,inactive
SPATA41 (spermatogenesis associated 41),1,-0.734,67.3,0.506,65.8,inactive
SPATA41 (spermatogenesis associated 41),2,-0.206,77.8,-0.24,92.6,inactive
SPATA41 (spermatogenesis associated 41),3,-1.18,58.5,-2.1,114,inactive
DENND10 (DENN domain containing 10),1,-0.00583,81.8,0.245,85.7,inactive
DENND10 (DENN domain containing 10),2,1.67,115,1.2,93.7,inactive
DENND10 (DENN domain containing 10),3,-2.87,24.8,-2.31,50.9,inactive
KLF10 (KLF transcription factor 10),1,2.93,140,2.71,76.8,inactive
KLF10 (KLF transcription factor 10),2,0.191,85.7,-0.265,103,inactive
KLF10 (KLF transcription factor 10),3,-0.897,64,-1.32,101,inactive
MKKS (MKKS centrosomal shuttling protein),1,-0.39,74.1,-0.191,87.1,inactive
MKKS (MKKS centrosomal shuttling protein),2,-0.0422,81,0.321,83.2,inactive
MKKS (MKKS centrosomal shuttling protein),3,-0.164,78.6,-0.148,91.3,inactive

Not a retest: 10 of the entries above.
target,reagent,"total luciferase, z-score","total luciferase, % of control","luciferase per cell, z-score","viable cells, % of control",Outcome
CALML6 (calmodulin like 6),2,0.385,89.5,0.548,86.6,inactive
CALML6 (calmodulin like 6),3,-1.68,48.5,-0.973,70.1,inactive
FUT7 (fucosyltransferase 7),1,-0.067,80.6,0.08,88.1,inactive
FUT7 (fucosyltransferase 7),2,0.0359,82.6,0.0689,90.6,inactive
FUT7 (fucosyltransferase 7),3,-1.59,50.3,-2.13,98.6,inactive
IPO4 (importin 4),1,1.37,109,1.14,90.3,inactive
IPO4 (importin 4),2,0.36,89.1,-0.612,117,inactive
IPO4 (importin 4),3,1.3,108,2.21,67.3,inactive
OTUD1 (OTU deubiquitinase 1),1,-0.0904,80.1,-0.157,93.3,inactive
OTUD1 (OTU deubiquitinase 1),2,-1.32,55.7,0.46,55.2,inactive

More records follow:
target,reagent,"total luciferase, z-score","total luciferase, % of control","luciferase per cell, z-score","viable cells, % of control",Outcome
ABCB1 (ATP binding cassette subfamily B member 1),1,0.43,90.4,0.603,86.2,inactive
ABCB1 (ATP binding cassette subfamily B member 1),2,0.637,94.6,0.125,102,inactive
ABCB1 (ATP binding cassette subfamily B member 1),3,0.477,91.4,-0.121,105,inactive
ABCG2 (ATP binding cassette subfamily G member 2 (JR blood group)),1,-0.0938,80,-0.511,102,inactive
ABCG2 (ATP binding cassette subfamily G member 2 (JR blood group)),2,0.868,99.2,1.28,79.2,inactive
ABCG2 (ATP binding cassette subfamily G member 2 (JR blood group)),3,1.22,106,0.598,101,inactive
"RAB6A (RAB6A, member RAS oncogene family)",1,0.609,94,-0.032,106,inactive
"RAB6A (RAB6A, member RAS oncogene family)",2,-0.14,79.1,-0.759,108,inactive
"RAB6A (RAB6A, member RAS oncogene family)",3,-1.34,55.3,-1.75,98.1,inactive
GBA1 (glucosylceramidase beta 1),1,-0.443,73.1,-0.341,89.3,inactive
GBA1 (glucosylceramidase beta 1),2,0.351,88.9,-0.0296,100,inactive
GBA1 (glucosylceramidase beta 1),3,-1.08,60.4,-0.185,70.9,inactive
PAIP2B (poly(A) binding protein interacting protein 2B),1,1.27,107,1.14,88.7,inactive
PAIP2B (poly(A) binding protein interacting protein 2B),2,2.15,125,1.73,88.3,inactive
PAIP2B (poly(A) binding protein interacting protein 2B),3,0.729,96.4,-0.397,120,inactive
MIR4500HG (MIR4500 host gene),1,-0.151,78.9,0.0244,87.6,inactive
MIR4500HG (MIR4500 host gene),2,-0.778,66.4,-0.489,84.4,inactive
MIR4500HG (MIR4500 host gene),3,-0.193,78,0.271,81.2,inactive
LOC100533706 (NEDD8 activating enzyme E1 subunit 1 pseudogene),1,-2.55,31.2,-3.33,83.7,inactive
LOC100533706 (NEDD8 activating enzyme E1 subunit 1 pseudogene),2,-2.35,35.1,0.45,34.8,inactive
LOC100533706 (NEDD8 activating enzyme E1 subunit 1 pseudogene),3,-0.814,65.7,-0.846,91.7,inactive
"SPTB (spectrin beta, erythrocytic)",1,-0.494,72.1,-1.05,106,inactive
"SPTB (spectrin beta, erythrocytic)",2,0.157,85,-0.554,110,inactive
"SPTB (spectrin beta, erythrocytic)",3,0.203,85.9,0.314,88.4,inactive
"MOB4 (MOB family member 4, phocein)",1,2.01,122,1.97,81.1,inactive
"MOB4 (MOB family member 4, phocein)",2,0.819,98.2,0.578,94.2,inactive
"MOB4 (MOB family member 4, phocein)",3,0.727,96.4,0.144,104,inactive
CPN1 (carboxypeptidase N subunit 1),1,-0.491,72.1,-0.334,88,inactive
CPN1 (carboxypeptidase N subunit 1),2,-0.809,65.8,-0.481,83.4,inactive
CPN1 (carboxypeptidase N subunit 1),3,-0.0842,80.2,0.125,86.7,inactive
SOBP (sine oculis binding protein homolog),1,-0.776,66.5,-1.26,103,inactive
SOBP (sine oculis binding protein homolog),2,-1.29,56.1,0.322,57.6,inactive
SOBP (sine oculis binding protein homolog),3,0.125,84.4,-0.282,102,inactive
"ATP8B5P (ATPase phospholipid transporting 8B5, pseudogene)",1,1.01,102,0.844,91.2,inactive
"ATP8B5P (ATPase phospholipid transporting 8B5, pseudogene)",2,-0.682,68.3,-0.915,97.1,inactive
"ATP8B5P (ATPase phospholipid transporting 8B5, pseudogene)",3,0.505,91.9,0.637,86.9,inactive
